Results are given in words; binding and its absence hold for the method and conditions named. Binding seen in cells or lysates may run through a third protein. Some entries that bind do so weakly or less than the wild type.

For this assay, the target named is human STAT2, HA-tagged (HA-STAT2-Myc) (human), P52630. Put plainly: co-IP. Conditions: remark: other sources report otherwise.

B1: interferon regulatory factor 9 (IRF9), Q00978 1-393 (protein)
chain: MASGRARCTRKLRNWVVEQVESGQFPGVCWDDTAKTMFRIPWKHAGKQDFREDQDAAFFKAWAIFKGKYKEGDTGGPAVWKTRLRCALNKSSEFKEVPERGRMDVAEPYKVYQLLPPGIVSGQPGTQKVPSKRQHSSVSSERKEEEDAMQNCTLSPSVLQDSLNNEEEGASGGAVHSDIGSSSSSSSPEPQEVTDTTEAPFQGDQRSLEFLLPPEPDYSLLLTFIYNGRVVGEAQVQSLDCRLVAEPSGSESSMEQVLFPKPGPLEPTQRLLSQLERGILVASNPRGLFVQRLCPIPISWNAPQAPPGPGPHLLPSNECVELFRTAYFCRDLVRYFQGLGPPPKFQVTLNFWEESHGSSHTPQNLITVKMEQAFARYLLEQTPEQQAAILSLV
As for B1, the binding entry is listed as “binds”.

For the origin of these results see publication doi:10.1101/2024.03.06.583679.
